Measured values from PMC11339399.
Results are given in words; binding and its absence hold for the method and conditions named. Binding seen in cells or lysates may run through a third protein. Some entries that bind do so weakly or less than the wild type.

Protein sequences, listed by entry. Tags and fused reporters are not part of them.
UniProt P37802: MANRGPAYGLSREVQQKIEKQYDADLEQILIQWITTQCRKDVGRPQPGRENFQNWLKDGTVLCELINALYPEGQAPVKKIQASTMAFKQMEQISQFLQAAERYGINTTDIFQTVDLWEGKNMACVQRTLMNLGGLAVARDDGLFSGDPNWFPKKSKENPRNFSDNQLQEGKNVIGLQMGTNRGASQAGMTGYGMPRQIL
UniProt P67809: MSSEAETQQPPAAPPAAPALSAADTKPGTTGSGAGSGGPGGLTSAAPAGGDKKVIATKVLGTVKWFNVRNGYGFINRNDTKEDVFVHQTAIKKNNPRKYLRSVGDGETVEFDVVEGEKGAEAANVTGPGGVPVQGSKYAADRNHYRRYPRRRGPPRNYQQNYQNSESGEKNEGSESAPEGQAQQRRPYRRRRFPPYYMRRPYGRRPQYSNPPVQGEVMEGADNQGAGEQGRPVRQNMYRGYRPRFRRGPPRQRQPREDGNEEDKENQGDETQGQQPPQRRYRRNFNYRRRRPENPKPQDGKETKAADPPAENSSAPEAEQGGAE
UniProt P01106: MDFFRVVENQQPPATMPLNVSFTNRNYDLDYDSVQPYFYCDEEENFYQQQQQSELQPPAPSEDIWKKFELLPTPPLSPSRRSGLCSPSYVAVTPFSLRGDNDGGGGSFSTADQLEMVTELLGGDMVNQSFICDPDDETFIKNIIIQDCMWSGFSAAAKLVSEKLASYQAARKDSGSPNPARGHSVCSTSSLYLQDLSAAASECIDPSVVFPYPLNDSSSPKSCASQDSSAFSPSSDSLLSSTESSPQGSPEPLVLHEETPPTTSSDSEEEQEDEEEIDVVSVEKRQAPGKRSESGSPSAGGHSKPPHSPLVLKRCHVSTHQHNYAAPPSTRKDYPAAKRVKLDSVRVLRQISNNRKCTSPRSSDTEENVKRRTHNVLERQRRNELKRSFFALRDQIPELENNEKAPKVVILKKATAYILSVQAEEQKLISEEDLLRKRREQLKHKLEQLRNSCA
UniProt P48436: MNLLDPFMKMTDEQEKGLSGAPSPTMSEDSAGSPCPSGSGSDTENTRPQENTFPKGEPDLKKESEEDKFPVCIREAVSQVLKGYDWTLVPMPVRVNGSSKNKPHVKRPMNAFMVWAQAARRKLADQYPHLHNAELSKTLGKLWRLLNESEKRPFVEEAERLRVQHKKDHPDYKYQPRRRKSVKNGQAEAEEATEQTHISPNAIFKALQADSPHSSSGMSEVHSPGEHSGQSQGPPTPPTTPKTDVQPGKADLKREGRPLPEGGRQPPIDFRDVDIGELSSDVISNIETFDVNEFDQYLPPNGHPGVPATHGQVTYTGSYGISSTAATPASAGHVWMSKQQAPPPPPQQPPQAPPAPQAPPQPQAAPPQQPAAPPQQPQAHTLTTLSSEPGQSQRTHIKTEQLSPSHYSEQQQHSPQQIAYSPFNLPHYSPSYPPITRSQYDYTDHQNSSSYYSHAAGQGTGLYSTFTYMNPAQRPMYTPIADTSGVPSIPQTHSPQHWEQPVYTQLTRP

What was measured:
TAGLN2 (human) = TAGLN2 (human) (UniProt P37802); experiment: co-IP; Pierce Co-IP kit; antibodies against the proteins themselves (anti-TAGLN2, anti-SOX9, anti-c-Myc, anti-SP1, anti-YBX1) coupled to resin; cell lysate overnight at 4 °C; Western blot
[1] = target: YBX1 (human (endogenous in the paper's human cell lines; line not named)) (UniProt P67809); experiment: as above
Flag-YBX1 = Flag-YBX1 (UniProt P67809); experiment: co-IP; Pierce Co-IP kit; anti-Flag or anti-HA coupled to resin; lysates of transfected cells (BGC-823 for Flag-TAGLN2 and HA-YBX1, wild type or fragments); overnight at 4 °C; Western blot

| Substance | binding (TAGLN2 (human)) | binding [1] | binding (Flag-YBX1) |
| --- | --- | --- | --- |
| c-Myc (from UniProt P01106 1-454) | binds |  |  |
| SOX9 (from UniProt P48436 1-509) | binds |  |  |
| TAGLN2 (from UniProt P37802 1-199) |  | binds | binds |
